Source: patent US20020115599A1
These are yes or no findings as the source states them, for the method shown. Some entries that bind do so weakly or less than the wild type. Where a sequence is shown, tags or fusion partners need not be part of it.

Target: T1, GST-Xklp2-tail (glutathione-S-transferase fusion protein containing the COOH-terminal domain of Xklp2) (Xenopus) (UniProt Q91785)
T1 sequence (looked up): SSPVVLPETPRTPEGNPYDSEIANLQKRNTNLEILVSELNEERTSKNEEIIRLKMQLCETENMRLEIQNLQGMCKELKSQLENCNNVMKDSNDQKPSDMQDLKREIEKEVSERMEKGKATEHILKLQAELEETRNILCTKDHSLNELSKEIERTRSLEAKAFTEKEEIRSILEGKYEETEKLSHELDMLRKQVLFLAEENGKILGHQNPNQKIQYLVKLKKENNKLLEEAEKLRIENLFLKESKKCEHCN
Assay: worded summary in Example 4; the experiment is TPX2-mediated co-sedimentation of GST-Xklp2-tail with microtubules

binding: binds
B1: TPX2 (targeting protein for Xklp2), native Xenopus laevis protein purified from or present in egg extract and XL177 cells (protein)
chain: MEDTQDTYSYDAPSIFNFSSFHEDHNADSWFDQVTNAENIPPDQRRLSETSVNTEQNSKVQPVQTTPSKDDVSNSATHVCDVKSQSKRSSRRMSKKHRQKLLVKMKDTHLEKETAPPEYPPCKKLKGSSSKGRHAPVIKSQSTSSHHSMTSPKPKAQLTMPSTPTVLKRRNVLVKAKNSEEQELEKMQELQKEMLENLKKNEHSMKVAITGAGQPVKTFIPVTKPVDFHFKTDDRLKRTANQPEGDGYKAVDFASELRKHPPSPVQVTKGGHTVPKPFNLSKGKRKHEEASDYVSTAEQVIAFYKRTPARYHLRSRQREMEGPSPVKMIKTKLTNPKTPLLQTKGRHRPVTCKSAAELEAEELEMINQYKFKAQELEELEMINQPVLLKKPLVKEPTKAIGFDLEIEKRIQQREKKEEIEEETFTFHSRPCPSKMLTDVVGVPLKKLLPVTVPQSPAFALKNRVRIPAQEEKEEMVPVIKATRMPHYGVPFKPKLVEQRQVDVCPFSFCDRDKERQLQKEKRLDELRKDEVPKFKAQPLPQFDNIRLPEKKVKMPTQQEPFDLEIEKRGASKLQRWQQQIQEELKQQKEMVVFKARPNTVVHQEPFVPKKENRSLTESLSGSIVQEGFELATAKRAKERQEFDKCLAETEAQKSLLEEEIRKRREEEEKEEISQLRQELVHKAKPIRKYRAVEVKASDVPLTVPRSPNFSDRFKC
modifications: phosphorylated in mitotic extract (sites not determined)
